Experimental data: the supplement of paper PMC3334620
The full ranking holds about 33,000 sequences; the median of “E-score (-0.5 to 0.5)” is about -0.0059, and the highest 2% start at about 0.26. The list shows a part of the results.

Target: T1, Cin5 (UniProt P40917)
T1 sequence: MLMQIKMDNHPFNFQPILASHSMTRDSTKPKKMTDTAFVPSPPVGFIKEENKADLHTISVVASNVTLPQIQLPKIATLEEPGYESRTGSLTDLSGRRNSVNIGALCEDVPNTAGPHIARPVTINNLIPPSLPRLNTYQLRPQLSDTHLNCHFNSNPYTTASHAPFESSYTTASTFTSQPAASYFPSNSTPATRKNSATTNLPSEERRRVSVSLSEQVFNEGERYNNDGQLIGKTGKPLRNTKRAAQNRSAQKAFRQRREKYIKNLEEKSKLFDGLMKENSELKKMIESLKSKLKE
Assay: PBM E-score (8-mer binding enrichment) (E-score (-0.5 to 0.5)); higher = stronger / more preferred TF binding
Conditions: protein concentration: 100 nM; construct: GST-full length
How it was run: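 Universal all-10-mer Agilent arrays, double-stranded by primer extension on fresh or once-stripped slides, were probed with about 100-200 nM GST-tagged yeast transcription factors made by PURExpress. Fluorescent anti-GST detected bound protein, and masliner normalised the scans. E-scores from the Universal PBM Analysis Suite were given to each ungapped eight-base word pooled with its reverse complement.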

Sequence	PBM E-score
CAGTAGTA	0.0564
ATGCTGTA	-0.0138
GAGTATCC	-0.0954
CATAGACC	-0.0448
GGGTTCAC	-0.0209
GGGATCTA	0.0113
CTAACAGC	-0.0547
AACGCAGT	-0.115
TCGTCCCA	-0.00184
ATAGCCGA	0.141
ATTTGTAA	0.326
AATATATA	0.18
CAGCCCTA	0.0564
AGGACCCG	-0.169
ATTTCGTG	0.163
GAACCTTA	0.083
AGTAATGG	0.162
ATGGTTGG	-0.0785
AAAACCGT	-0.157
AATCGGAA	0.194
AGCTTCCT	0.00798
GGGGAGGA	-0.166
CTTCTACA	-0.0264
CGCCAACA	0.0596
CTTGTAAA	0.0136

Sequence	PBM E-score
GCAGGGAA	0.185
ATAAAGCG	0.00465
AGTTCGCG	0.0949
AAGCAACA	0.162
CAGGGTGC	-0.286
GATGAGAA	-0.028
CCGTCCGC	-0.0958
GTACCATA	-0.04
AGAGGTTG	-0.0988
AAATAGAC	0.143
CGTACGTC	-0.085
GTCCAAAC	-0.189
AACAGAGG	-0.0344
ACTCACAC	-0.0239
GGCTCCAC	-0.279
GCGAGGAA	0.0446
GACGTCCA	0.168
TATGTTGA	0.146
CCAGGACA	-0.025
GATGGTCC	-0.129
ACGCAATA	0.209
GCTCGAAC	0.023
ACACTTAC	0.103
AGTCAAGG	-0.0863
CCCCGAGG	-0.188

Sequence	PBM E-score
CGGTTAGA	-0.0583
AACGCCCG	0.0417
CATGAAGC	-0.0759
ACATTGCA	0.108
ACGTTCTG	-0.0118
ATCCGCAT	0.164
CTAGAACC	0.0185
GGGCCGAA	-0.097
CGATCTCA	0.0389
AAACTTGT	0.0442
TGCCCCCA	-0.285
CCAGTTGC	-0.18
ATCATTAA	0.221
ACAGCGAA	-0.00314
TGAGAGCA	0.016
CCCCTCCG	-0.194
AAGTGTTG	0.233
AACCAATA	0.214
AACGAACC	0.123
TACAGTCA	0.0163
CGCTCTGA	-0.0953
ACGAAGAC	-0.159
CCCCGGTC	-0.2
ACCGTTCG	0.0104
CGTGGCTA	-0.13

Sequence	PBM E-score
CATCAGCA	0.0488
GATCCATC	0.044
CATTGGGA	-0.093
AATCAATA	0.168
AAAGGGCG	-0.047
TACGCCAA	-0.172
CCCGCCAC	0.137
CTTCGTCA	0.145
CGATACAC	-0.107
CGCCGAGA	-0.00261
AACAAAGT	0.219
CCCGATTC	-0.00413
ATAAATCC	0.136
ATTTGAAC	0.0971
ACACTGAC	0.146
CGTCAGCA	0.169
AGTACTCC	-0.0905
ACACGGGC	-0.128
AACAGTCT	-0.202
AATTTTCT	0.135
GATCTAAC	0.0956
AATATATG	0.248
GCTGCCTA	0.00723
ACGGGTGC	-0.044
AAATCTAC	0.169

A stretch from the list above:
Sequence	PBM E-score
ATTTCGTG	0.163
GAACCTTA	0.083
AGTAATGG	0.162
ATGGTTGG	-0.0785
AAAACCGT	-0.157
AATCGGAA	0.194
AGCTTCCT	0.00798
GGGGAGGA	-0.166
CTTCTACA	-0.0264
CGCCAACA	0.0596
CTTGTAAA	0.0136
GCAGGGAA	0.185
ATAAAGCG	0.00465
AGTTCGCG	0.0949
AAGCAACA	0.162
CAGGGTGC	-0.286
GATGAGAA	-0.028
CCGTCCGC	-0.0958
GTACCATA	-0.04
AGAGGTTG	-0.0988
AAATAGAC	0.143
CGTACGTC	-0.085
GTCCAAAC	-0.189
AACAGAGG	-0.0344
ACTCACAC	-0.0239
GGCTCCAC	-0.279
GCGAGGAA	0.0446
GACGTCCA	0.168
TATGTTGA	0.146
CCAGGACA	-0.025
GATGGTCC	-0.129
ACGCAATA	0.209

(list continues)

Sequence	PBM E-score
CAATTATA	0.126
CGCCTTTA	-0.0771
CCAGTCTA	-0.11
GCTTGTGA	-0.13
CGGTAGTA	-0.0389
ACACCTAG	-0.135
CGGCACGA	0.00852
CACCTATG	-0.0699
ACCTGTCA	-0.0783
ATAGATGG	0.00483
CTGCTCTA	0.0196
GCGTGCTA	-0.266
CATGTTCC	-0.0235
AAAGCGGT	-0.117
ATGTTCGC	-0.0488
ACTTAACG	-0.0484
CACGCTGC	-0.173
GATCTCTA	-0.138
CCTTCGAC	-0.305
CAAGAGGC	-0.124
AGGTCCAC	-0.229
GAGCGGCC	-0.239
ACAAGCGA	0.155
CCTGATAC	0.175
CAGTGTTC	0.0766

Sequence	PBM E-score
AAATCTGT	0.111
AAAATAGT	0.0745
AGCCCAAG	-0.0399
ATCTCGTC	0.0617
CCACTGCG	0.00457
AACTCTCA	-0.0921
CTCCTGGC	-0.0848
AGTAAGAT	0.183
GACTGGAA	-0.2
CCCACAAA	0.257
CGGAGAAG	-0.174
CTTACGGA	0.0965
AAATAGTG	0.213
CATCAAAC	0.0949
GGGTTGGA	-0.0377
CAGTGGGA	-0.0471
CCAGTCGA	-0.153
AATCGGAT	0.231
GGGAACGA	-0.166
AGTCTTCG	-0.26
GATCTACA	0.0592
ACAGACCT	0.0646
ACGGTTGA	0.0263
AGTACCCG	-0.0806
CAAAGGTC	-0.166

Sequence	PBM E-score
AAAATTCA	0.207
ACCCTGGA	-0.243
AGGGCAGA	-0.179
TCTACCAA	0.0398
ATCGAGCG	0.0899
CCCTGTCA	-0.149
CGAACCAG	0.11
GGTTGTTA	0.151
AATGCAAT	-0.0436
TAAGTATA	0.204
ATCACCGA	0.0464
ATAGACCA	0.0762
TCCCCAGA	0.0124
GCGAGTAA	0.143
CATTGCGC	0.122
GGCACCAC	-0.18
AATTCCCT	-0.12
CAAGCTCC	-0.241
AACTGTGC	-0.142
GTGCACTA	-0.0155
CACTAGTC	-0.0528
GCTGTCAA	-0.136
